# Data from the supplement of paper PMC8728848.
# The list shows a part of the results.
# B1: SabA (Helicobacter pylori) (protein)
# chain: MGSSHHHHHHSSGLVPRGSHMENLYFQGEDNGFFVSAGYQIGEAVQMVKNTGELKNLNEKYEQLSQYLNQVASLKQSIQNANNIELVNSSLNYLKSFTNNNYNSTTQSPIFNAVQAVITSVLGFWSLYAGNYFTFFVGKKVGDSGQPASVQGNPPFKTIIENCSGIENCAMDQTTYDKMKKLAEDLQAAQTNSATKGNNLCALSGCAATDSTSNPPNSTVSNALNLAQQLMDLIANTKTAMMWKNIVISGVSNTSGAITSTNYPTQYAVFNNIKAMIPILQQAVTLSQSNHTLSASLQAQATGSQTNPKFAKDIYTFAQNQKQVISYAQDIFNLFNSIPAEQYKYLEKAYLKIPNAGSTPTNPYRQVVNLNQEVQTIKNNVSYYGNRVDAALSVARDVYNLKSNQAEIVTAYNDAKTLSEEISKLPHNQVNTKDIVTLPYDKNAPAAGQSNYQINPEQQSNLNQALAAMSNNPFKKVGMISSQNNNGA
# Key:
# Assay in all cases: glycan array binding signal (z-score within array); higher = stronger binding
# Details in all cases: glycan notation: IUPAC condensed, linker removed
# [1] = molecular target: Gal(b1-3)GlcNAc(b1-2)Man(a1-3)[Gal(b1-3)GlcNAc(b1-2)Man(a1-6)]Man(b1-4)GlcNAc(b1-4)GlcNAc
# Procedure, shortened: (§1)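 Columns mapping to the same glycan were averaged after glycan names were converted to IUPAC-condensed notation. The data come from 3228 arrays in the Consortium for Functional Glycomics database, limited to those with an available protein sequence. Binding is reported as a within-array Z-score averaged across arrays of one protein sequence and across linkers.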
# [2] = molecular target: Gal(b1-3)GlcNAc(b1-2)Man(a1-3)[Gal(b1-3)GlcNAc(b1-2)Man(a1-6)]Man(b1-4)GlcNAc(b1-4)[Fuc(a1-6)]GlcNAc
# Procedure, shortened: as §1
# [3] = molecular target: Gal(b1-3)GlcNAc(b1-2)Man(a1-3)[GlcNAc(b1-4)][Gal(b1-3)GlcNAc(b1-2)Man(a1-6)]Man(b1-4)GlcNAc(b1-4)GlcNAc
# Procedure, shortened: as §1
# [4] = molecular target: Gal(b1-3)GlcNAc(b1-2)[Gal(b1-3)GlcNAc(b1-6)]Man(a1-6)[Gal(b1-3)GlcNAc(b1-2)Man(a1-3)]Man(b1-4)GlcNAc(b1-4)GlcNAc
# Procedure, shortened: as §1
# [5] = molecular target: Gal(b1-3)GlcNAc(b1-3)Gal(b1-3)GlcNAc
# Procedure, shortened: as §1
# [6] = molecular target: Gal(b1-3)GlcNAc(b1-3)Gal(b1-4)Glc
# Procedure, shortened: as §1
# [7] = molecular target: Gal(b1-3)GlcNAc(b1-3)Gal(b1-4)GlcNAc
# Procedure, shortened: as §1
# [8] = molecular target: Gal(b1-3)GlcNAc(b1-3)Gal(b1-4)GlcNAc(b1-2)Man(a1-3)[Gal(b1-3)GlcNAc(b1-3)Gal(b1-4)GlcNAc(b1-2)Man(a1-6)]Man(b1-4)GlcNAc(b1-4)GlcNAc
# Procedure, shortened: as §1
# [9] = molecular target: Gal(b1-3)GlcNAc(b1-3)Gal(b1-4)GlcNAc(b1-2)[Gal(b1-3)GlcNAc(b1-3)Gal(b1-4)GlcNAc(b1-6)]Man(a1-6)[Gal(b1-3)GlcNAc(b1-3)Gal(b1-4)GlcNAc(b1-2)Man(a1-3)]Man(b1-4)GlcNAc(b1-4)[Fuc(a1-6)]GlcNAc
# Procedure, shortened: as §1
# [10] = molecular target: Gal(b1-3)GlcNAc(b1-3)Gal(b1-4)GlcNAc(b1-3)Gal(b1-4)GlcNAc(b1-2)[Gal(b1-3)GlcNAc(b1-3)Gal(b1-4)GlcNAc(b1-3)Gal(b1-4)GlcNAc(b1-6)]Man(a1-6)[Gal(b1-3)GlcNAc(b1-3)Gal(b1-4)GlcNAc(b1-3)Gal(b1-4)GlcNAc(b1-2)Man(a1-3)]Man(b1-4)GlcNAc(b1-4)[Fuc(a1-6)]GlcNAc
# Procedure, shortened: as §1
# [11] = molecular target: Gal(b1-3)GlcNAc(b1-3)Gal(b1-4)GlcNAc(b1-6)[Gal(b1-3)GlcNAc(b1-3)]Gal(b1-4)Glc
# Procedure, shortened: as §1
# [12] = molecular target: Gal(b1-3)GlcNAc(b1-3)Gal(b1-4)[Fuc(a1-3)]GlcNAc
# Procedure, shortened: as §1
# [13] = molecular target: Gal(b1-3)GlcNAc(b1-3)Gal(b1-4)[Fuc(a1-3)]GlcNAc(b1-6)[Gal(b1-3)GlcNAc(b1-3)]Gal(b1-4)Glc
# Procedure, shortened: as §1
# [14] = molecular target: Gal(b1-3)GlcNAc(b1-3)GalNAc
# Procedure, shortened: as §1
# [15] = molecular target: Gal(b1-3)GlcNAc(b1-6)Gal(b1-4)GlcNAc
# Procedure, shortened: as §1
# [16] = molecular target: Gal(b1-3)GlcNAc(b1-6)GalNAc
# Procedure, shortened: as §1
# [17] = molecular target: Gal(b1-3)GlcNAc(b1-6)[Gal(b1-3)]GalNAc
# Procedure, shortened: as §1
# Gal(b1-3)GlcNAc6S = molecular target: Gal(b1-3)GlcNAc6S
# Procedure, shortened: as §1
# [18] = molecular target: Gal(b1-3)[Fuc(a1-4)]GlcNAc
# Procedure, shortened: as §1
# [19] = molecular target: Gal(b1-3)[Fuc(a1-4)]GlcNAc(b1-2)Man
# Procedure, shortened: as §1
# [20] = molecular target: Gal(b1-3)[Fuc(a1-4)]GlcNAc(b1-2)Man(a1-3)[Gal(b1-3)[Fuc(a1-4)]GlcNAc(b1-2)Man(a1-6)]Man(b1-4)GlcNAc(b1-4)[Fuc(a1-6)]GlcNAc
# Procedure, shortened: as §1
# [21] = molecular target: Gal(b1-3)[Fuc(a1-4)]GlcNAc(b1-3)Gal(b1-3)[Fuc(a1-4)]GlcNAc
# Procedure, shortened: as §1
# [22] = molecular target: Gal(b1-3)[Fuc(a1-4)]GlcNAc(b1-3)Gal(b1-4)[Fuc(a1-3)]GlcNAc
# Procedure, shortened: as §1
# [23] = molecular target: Gal(b1-3)[Fuc(a1-4)]GlcNAc(b1-6)GalNAc
# Procedure, shortened: as §1
# [24] = molecular target: Gal(b1-3)[GlcNAc(b1-6)]GalNAc
# Procedure, shortened: as §1
# [25] = molecular target: Gal(b1-3)[Neu5Ac(a2-6)]GalNAc
# Procedure, shortened: as §1
# [26] = molecular target: Gal(b1-3)[Neu5Ac(a2-6)]GlcNAc(b1-4)Gal(b1-4)Glc
# Procedure, shortened: as §1
# [27] = molecular target: Gal(b1-3)[Neu5Ac(b2-6)]GalNAc
# Procedure, shortened: as §1
# Gal(b1-4)Gal = molecular target: Gal(b1-4)Gal
# Procedure, shortened: as §1
# [28] = molecular target: Gal(b1-4)GalNAc(a1-3)[Fuc(a1-2)]Gal(b1-4)GlcNAc
# Procedure, shortened: as §1
# [29] = molecular target: Gal(b1-4)GalNAc(b1-3)[Fuc(a1-2)]Gal(b1-4)GlcNAc
# Procedure, shortened: as §1
# Gal(b1-4)Glc = molecular target: Gal(b1-4)Glc
# Procedure, shortened: as §1
# Gal(b1-4)Glc6S = molecular target: Gal(b1-4)Glc6S
# Procedure, shortened: as §1
# Gal(b1-4)GlcNAc = molecular target: Gal(b1-4)GlcNAc
# Procedure, shortened: as §1
# [30] = molecular target: Gal(b1-4)GlcNAc(a1-6)Gal(b1-4)GlcNAc
# Procedure, shortened: as §1
# Gal(b1-4)GlcNAc(b1-2)Man = molecular target: Gal(b1-4)GlcNAc(b1-2)Man
# Procedure, shortened: as §1
# [31] = molecular target: Gal(b1-4)GlcNAc(b1-2)Man(a1-3)Man(b1-4)GlcNAc(b1-4)GlcNAc
# Procedure, shortened: as §1
binder,measurement,setting,value
B1,glycan array binding signal (z-score),[1],-0.656
same,glycan array binding signal (z-score),[2],0.385
same,glycan array binding signal (z-score),[3],0.404
same,glycan array binding signal (z-score),[4],1.42
same,glycan array binding signal (z-score),[5],-0.786
same,glycan array binding signal (z-score),[6],-0.658
same,glycan array binding signal (z-score),[7],-0.288
same,glycan array binding signal (z-score),[8],-0.507
same,glycan array binding signal (z-score),[9],-0.488
same,glycan array binding signal (z-score),[10],-0.301
same,glycan array binding signal (z-score),[11],-0.24
same,glycan array binding signal (z-score),[12],-0.454
same,glycan array binding signal (z-score),[13],-0.566
same,glycan array binding signal (z-score),[14],-0.702
same,glycan array binding signal (z-score),[15],-0.252
same,glycan array binding signal (z-score),[16],-1.03
same,glycan array binding signal (z-score),[17],-0.369
same,glycan array binding signal (z-score),Gal(b1-3)GlcNAc6S,0.606
same,glycan array binding signal (z-score),[18],-0.241
same,glycan array binding signal (z-score),[19],0.555
same,glycan array binding signal (z-score),[20],0.33
same,glycan array binding signal (z-score),[21],-0.751
same,glycan array binding signal (z-score),[22],-0.356
same,glycan array binding signal (z-score),[23],-0.4
same,glycan array binding signal (z-score),[24],0.158
same,glycan array binding signal (z-score),[25],-0.119
same,glycan array binding signal (z-score),[26],0.532
same,glycan array binding signal (z-score),[27],-0.644
same,glycan array binding signal (z-score),Gal(b1-4)Gal,0.204
same,glycan array binding signal (z-score),[28],-0.578
same,glycan array binding signal (z-score),[29],-0.668
same,glycan array binding signal (z-score),Gal(b1-4)Glc,-0.545
same,glycan array binding signal (z-score),Gal(b1-4)Glc6S,0.12
same,glycan array binding signal (z-score),Gal(b1-4)GlcNAc,-0.014
same,glycan array binding signal (z-score),[30],0.158
same,glycan array binding signal (z-score),Gal(b1-4)GlcNAc(b1-2)Man,0.994
same,glycan array binding signal (z-score),[31],1.19

# A different layout for part of the listing above:
binder	measurement	setting	value
B1	glycan array binding signal (z-score)	[4]	1.42
same	glycan array binding signal (z-score)	[5]	-0.786
same	glycan array binding signal (z-score)	[6]	-0.658
